# PubChem BioAssay AID248 (DTP/NCI, 2004)
# The list does not hold the whole screen: it gathers tests that were run many times, whatever their T/C, doses with no T/C, and many T/C values between a quarter and a half above the control. Other doses and runs of a compound stand elsewhere. T/C: endpoint of the treated group in % of that of the vehicle group. Some doses have a count of surviving animals in place of a T/C: the source holds a T/C of zero for them, seemingly a mark for toxic or unscored doses. Some doses without a T/C left all or most animals alive at the check, yet need not have been tolerated: the source hardly ever lists a survival T/C far under the control, and the zero likely stands for such cases as well. Counts of survivors are from the toxicity check (mostly the fifth day) where no day follows; animals may have died later. Schedule codes are those of the source, read here as Q, the interval in days (D) or hours (H), X, the number of doses. Some entries were tested several times; the results are listed from low to high. Where survival is the endpoint, this PubChem deposit counts one and a half times the control or more as active, and values a quarter to a half above the control carry no call in these data; other NCI protocols may use other cut-offs. Some T/C values carry the count of animals alive at the toxicity check (mostly the fifth day); where none is given, no animal had died by that day.
# System: L1210 leukemia ip in BDF1 mice, survival T/C
# Experiment: NCI In Vivo Anticancer Drug Screen. Data for tumor model L1210 Leukemia (intraperitoneal) in B6D2F1 (BDF1) mice
# Conditions: T/C endpoint: mean survival time, higher T/C = longer survival
smiles,measurement,setting,value
COC(C(=O)C(O)C(C)O)C1CC2C=C3C=C(OC4CC(OC5CC(O)C(OC)C(C)O5)C(OC(C)=O)C(C)O4)C(C)C(=O)C3=C(O)C2=C(O)C1OC1CC(OC2CC(OC3CC(C)(O)C(OC(=O)C(C)C)C(C)O3)C(O)C(C)O2)C(O)C(C)O1 (stereo not given),T/C,"dose: 0.12 mg/kg/injection, schedule: Q01DX001 (ip), vehicle: other",127 % of control
same,T/C,"dose: 1.0 mg/kg/injection, schedule: Q01DX001 (ip), vehicle: other",133 % of control [4 of 6 alive]
same,T/C,"dose: 8.0 micrograms/kg/injection, schedule: Q01DX009 (ip), vehicle: saline",125 % of control
same,T/C,"dose: 31.0 micrograms/kg/injection, schedule: Q01DX001 (ip), vehicle: saline",130 % of control
same,T/C,"dose: 31.2 micrograms/kg/injection, schedule: Q01DX001 (ip), vehicle: saline",133 % of control
same,survivor count,"dose: 31.2 micrograms/kg/injection, schedule: Q01DX009 (ip), vehicle: saline",10 of 10
same,T/C,"dose: 31.2 micrograms/kg/injection, schedule: Q04DX003 (ip), vehicle: saline",131 % of control
same,T/C,"dose: 31.2 micrograms/kg/injection, schedule: Q08DX002 (ip), vehicle: saline",136 % of control
same,T/C,"dose: 32.0 micrograms/kg/injection, schedule: Q01DX009 (ip), vehicle: other",128 % of control
same,T/C,"dose: 62.0 micrograms/kg/injection, schedule: Q01DX001 (ip), vehicle: saline",128 % of control
same,T/C,"dose: 62.5 micrograms/kg/injection, schedule: Q01DX001 (ip), vehicle: saline, evaluated on day 30",137 % of control
same,T/C,"dose: 62.5 micrograms/kg/injection, schedule: Q01DX001 (ip), vehicle: saline, evaluated on day 60",148 % of control
same,survivor count,"dose: 62.5 micrograms/kg/injection, schedule: Q01DX009 (ip), vehicle: saline",9 of 10
same,T/C,"dose: 62.5 micrograms/kg/injection, schedule: Q08DX002 (ip), vehicle: saline",146 % of control
same,survivor count,"dose: 75.0 micrograms/kg/injection, schedule: Q01DX009 (ip), vehicle: other",5 of 6
same,T/C,"dose: 125.0 micrograms/kg/injection, schedule: Q01DX001 (ip), vehicle: saline",132 % of control
same,survivor count,"dose: 125.0 micrograms/kg/injection, schedule: Q01DX009 (ip), vehicle: other",1 of 6
same,survivor count,"dose: 125.0 micrograms/kg/injection, schedule: Q01DX009 (ip), vehicle: saline",5 of 10
same,T/C,"dose: 160.0 micrograms/kg/injection, schedule: Q01DX001 (ip), vehicle: saline",129 % of control
same,survivor count,"dose: 250.0 micrograms/kg/injection, schedule: Q01DX009 (ip), vehicle: other",4 of 6
same,survivor count,"dose: 250.0 micrograms/kg/injection, schedule: Q01DX009 (ip), vehicle: saline",0 of 10
same,survivor count,"dose: 250.0 micrograms/kg/injection, schedule: Q04DX003 (ip), vehicle: saline",8 of 10
same,T/C,"dose: 250.0 micrograms/kg/injection, schedule: Q08DX002 (ip), vehicle: saline",140 % of control [7 of 10 alive]
same,T/C,"dose: 320.0 micrograms/kg/injection, schedule: Q01DX001 (ip), vehicle: saline",138 % of control
same,survivor count,"dose: 500.0 micrograms/kg/injection, schedule: Q01DX001 (ip), vehicle: saline","2 of 10, 4 of 6, 5 of 6"
same,survivor count,"dose: 500.0 micrograms/kg/injection, schedule: Q01DX009 (ip), vehicle: saline",0 of 10
same,survivor count,"dose: 500.0 micrograms/kg/injection, schedule: Q04DX003 (ip), vehicle: saline",7 of 10
same,survivor count,"dose: 500.0 micrograms/kg/injection, schedule: Q08DX002 (ip), vehicle: saline",8 of 10
same,T/C,"dose: 640.0 micrograms/kg/injection, schedule: Q01DX001 (ip), vehicle: saline",129 % of control
same,survivor count,"dose: 1000.0 micrograms/kg/injection, schedule: Q01DX001 (ip), vehicle: saline",3 of 10
same,survivor count,"dose: 1000.0 micrograms/kg/injection, schedule: Q01DX009 (ip), vehicle: saline",0 of 10
same,survivor count,"dose: 1000.0 micrograms/kg/injection, schedule: Q04DX003 (ip), vehicle: saline",5 of 10
same,survivor count,"dose: 1000.0 micrograms/kg/injection, schedule: Q08DX002 (ip), vehicle: saline",4 of 10
O=C(N/N=C/c1cccc([N+](=O)[O-])c1)c1cccc2ccccc12,survivor count,"dose: 100.0 mg/kg/injection, schedule: Q01DX001 (ip), vehicle: saline",4 of 4
Brc1csc2ncccc12,survivor count,"dose: 400.0 mg/kg/injection, schedule: Q04DX003 (ip), vehicle: Klucel (hydroxypropylcellulose) (HPC)",4 of 6
